Measured values: paper PMC7157767
These are yes or no findings as the source states them, for the method shown. Binding seen in cells or lysates may run through a third protein. Some results given as binding are weak or reduced against the parent protein; the word gives no strength.

Protein sequences, listed by entry. Tags and fused reporters are not part of them. Lines headed by an entry give the natural chain unless they say otherwise; changes in a name come on top.
UniProt Q8TEB1: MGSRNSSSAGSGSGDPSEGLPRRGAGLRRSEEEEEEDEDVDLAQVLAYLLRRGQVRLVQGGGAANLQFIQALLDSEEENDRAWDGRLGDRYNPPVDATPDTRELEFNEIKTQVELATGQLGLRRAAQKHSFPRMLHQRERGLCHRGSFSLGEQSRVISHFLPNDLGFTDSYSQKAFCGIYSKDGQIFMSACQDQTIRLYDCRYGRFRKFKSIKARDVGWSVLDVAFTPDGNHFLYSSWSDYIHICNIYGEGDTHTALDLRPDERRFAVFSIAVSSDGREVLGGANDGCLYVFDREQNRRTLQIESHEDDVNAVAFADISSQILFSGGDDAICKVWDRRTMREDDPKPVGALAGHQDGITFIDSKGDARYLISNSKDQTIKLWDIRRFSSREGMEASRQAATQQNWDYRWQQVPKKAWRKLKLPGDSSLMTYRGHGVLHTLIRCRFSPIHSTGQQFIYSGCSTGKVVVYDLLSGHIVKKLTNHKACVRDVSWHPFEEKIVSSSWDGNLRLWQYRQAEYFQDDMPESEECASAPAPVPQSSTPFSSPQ
UniProt Q16531: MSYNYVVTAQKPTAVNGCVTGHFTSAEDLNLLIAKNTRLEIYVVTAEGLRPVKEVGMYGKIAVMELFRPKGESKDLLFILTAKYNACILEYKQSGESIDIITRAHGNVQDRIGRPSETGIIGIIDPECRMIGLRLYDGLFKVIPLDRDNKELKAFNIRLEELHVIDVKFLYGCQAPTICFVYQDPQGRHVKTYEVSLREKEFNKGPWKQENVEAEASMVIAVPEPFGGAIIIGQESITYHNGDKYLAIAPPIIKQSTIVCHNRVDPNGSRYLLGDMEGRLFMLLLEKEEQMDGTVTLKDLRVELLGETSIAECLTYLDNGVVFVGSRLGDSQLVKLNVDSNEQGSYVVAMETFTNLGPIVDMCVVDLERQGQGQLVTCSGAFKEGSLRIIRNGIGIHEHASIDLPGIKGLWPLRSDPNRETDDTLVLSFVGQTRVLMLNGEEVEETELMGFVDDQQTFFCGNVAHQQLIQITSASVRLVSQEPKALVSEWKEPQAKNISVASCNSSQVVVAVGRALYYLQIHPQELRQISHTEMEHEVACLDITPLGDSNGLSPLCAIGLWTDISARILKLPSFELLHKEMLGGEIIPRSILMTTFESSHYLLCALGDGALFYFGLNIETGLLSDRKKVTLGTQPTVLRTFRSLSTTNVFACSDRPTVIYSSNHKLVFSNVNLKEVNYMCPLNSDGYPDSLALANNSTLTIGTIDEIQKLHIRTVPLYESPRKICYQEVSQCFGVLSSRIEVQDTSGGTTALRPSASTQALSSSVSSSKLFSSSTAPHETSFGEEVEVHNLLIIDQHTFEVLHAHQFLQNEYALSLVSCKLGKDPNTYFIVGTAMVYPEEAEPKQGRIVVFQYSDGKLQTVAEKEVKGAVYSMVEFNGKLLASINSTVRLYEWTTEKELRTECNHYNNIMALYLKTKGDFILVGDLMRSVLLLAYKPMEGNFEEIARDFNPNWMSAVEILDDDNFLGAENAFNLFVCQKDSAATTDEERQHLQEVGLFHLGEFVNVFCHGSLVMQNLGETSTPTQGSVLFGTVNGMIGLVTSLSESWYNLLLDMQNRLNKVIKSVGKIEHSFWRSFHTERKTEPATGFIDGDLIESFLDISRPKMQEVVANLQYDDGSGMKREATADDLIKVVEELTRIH
UniProt Q5VU92: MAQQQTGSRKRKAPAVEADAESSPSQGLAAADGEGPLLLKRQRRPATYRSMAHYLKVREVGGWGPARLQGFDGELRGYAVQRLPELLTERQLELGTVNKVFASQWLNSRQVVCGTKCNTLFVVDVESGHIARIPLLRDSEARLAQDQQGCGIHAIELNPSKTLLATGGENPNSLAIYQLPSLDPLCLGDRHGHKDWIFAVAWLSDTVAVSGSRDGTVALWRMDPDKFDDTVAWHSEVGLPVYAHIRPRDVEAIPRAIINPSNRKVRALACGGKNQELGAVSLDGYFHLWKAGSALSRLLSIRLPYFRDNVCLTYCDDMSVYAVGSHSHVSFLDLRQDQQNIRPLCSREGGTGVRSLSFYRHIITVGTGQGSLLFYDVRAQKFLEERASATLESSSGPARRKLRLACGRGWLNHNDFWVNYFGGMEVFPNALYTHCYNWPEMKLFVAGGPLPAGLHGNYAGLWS
UniProt P03427: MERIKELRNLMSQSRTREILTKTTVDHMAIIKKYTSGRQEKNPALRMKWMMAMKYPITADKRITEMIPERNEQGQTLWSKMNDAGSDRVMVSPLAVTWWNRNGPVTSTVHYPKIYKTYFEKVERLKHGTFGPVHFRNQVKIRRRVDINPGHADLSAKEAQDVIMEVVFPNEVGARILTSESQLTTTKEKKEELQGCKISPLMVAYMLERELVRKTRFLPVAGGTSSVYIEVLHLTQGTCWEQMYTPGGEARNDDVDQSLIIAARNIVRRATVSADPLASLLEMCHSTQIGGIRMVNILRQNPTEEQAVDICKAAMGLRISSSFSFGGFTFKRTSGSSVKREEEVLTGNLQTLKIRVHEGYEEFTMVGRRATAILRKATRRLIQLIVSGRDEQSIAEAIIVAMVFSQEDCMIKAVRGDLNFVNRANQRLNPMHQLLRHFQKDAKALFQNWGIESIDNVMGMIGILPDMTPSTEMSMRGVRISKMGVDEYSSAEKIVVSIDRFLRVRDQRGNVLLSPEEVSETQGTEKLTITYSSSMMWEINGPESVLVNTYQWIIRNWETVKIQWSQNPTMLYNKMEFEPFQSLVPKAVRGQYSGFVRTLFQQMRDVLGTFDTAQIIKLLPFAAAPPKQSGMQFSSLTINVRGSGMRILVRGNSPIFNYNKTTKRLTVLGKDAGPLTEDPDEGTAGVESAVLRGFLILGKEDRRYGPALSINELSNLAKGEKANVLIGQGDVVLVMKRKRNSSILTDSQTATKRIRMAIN

What was measured:
Strep-DCAF11 (human) [1] = target: Strep-DCAF11 (human) (UniProt Q8TEB1); experiment: pull-down
Strep-DDB1 (human) [2] = target: Strep-DDB1 (human) (UniProt Q16531); experiment: pull-down
Strep-DCAF12L1 (human) [3] = target: Strep-DCAF12L1 (human) (UniProt Q5VU92); experiment: pull-down
Strep-DCAF11 (human) [4] = target: Strep-DCAF11 (human) (UniProt Q8TEB1); experiment: split reporter + pull-down
Strep-DDB1 (human) [5] = target: Strep-DDB1 (human) (UniProt Q16531); experiment: split reporter + pull-down
Strep-DCAF12L1 (human) [6] = target: Strep-DCAF12L1 (human) (UniProt Q5VU92); experiment: split reporter + pull-down
[7] = target: PB2-Strep (expressed by recombinant H1N1WSN-PB2-Strep virus) (influenza A/WSN/33 virus (H1N1WSN)) (UniProt P03427); experiment: pull-down
Gluc1-DCAF12L1 (human) = Gluc1-DCAF12L1 (human) (UniProt Q5VU92); experiment: split reporter + pull-down
Gluc1-DCAF11 (human) = Gluc1-DCAF11 (human) (UniProt Q8TEB1); experiment: split reporter + pull-down

Measured: binding

3×Flag-H1N1WSN PB2 (from UniProt P03427 1-759)
not listed: [7] | Gluc1-DCAF12L1 (human) | Gluc1-DCAF11 (human)
binds: all other assays above

3×Flag-PB2 C-terminal (Ct) domain (from UniProt P03427 248-759) (domain or fragment)
binds: Strep-DCAF11 (human) [1] | Strep-DDB1 (human) [2] | Strep-DCAF12L1 (human) [3]

endogenous DDB1 (from UniProt Q16531 1-1140)
binds: [7]

Gluc2-PB2 (from UniProt P03427 1-759)
binds: Strep-DDB1 (human) [5] | Gluc1-DCAF12L1 (human) | Gluc1-DCAF11 (human)

3×Flag-PB2 N-terminal (Nt) domain (from UniProt P03427 1-247) (domain or fragment)
binds: Strep-DCAF11 (human) [1] | Strep-DDB1 (human) [2]
